Reference: publication PMC4911916

Protein sequences, listed by entry. Tags and fused reporters are not part of them. Lines headed by an entry give the natural chain unless they say otherwise; changes in a name come on top.
UniProt Q9UKV8: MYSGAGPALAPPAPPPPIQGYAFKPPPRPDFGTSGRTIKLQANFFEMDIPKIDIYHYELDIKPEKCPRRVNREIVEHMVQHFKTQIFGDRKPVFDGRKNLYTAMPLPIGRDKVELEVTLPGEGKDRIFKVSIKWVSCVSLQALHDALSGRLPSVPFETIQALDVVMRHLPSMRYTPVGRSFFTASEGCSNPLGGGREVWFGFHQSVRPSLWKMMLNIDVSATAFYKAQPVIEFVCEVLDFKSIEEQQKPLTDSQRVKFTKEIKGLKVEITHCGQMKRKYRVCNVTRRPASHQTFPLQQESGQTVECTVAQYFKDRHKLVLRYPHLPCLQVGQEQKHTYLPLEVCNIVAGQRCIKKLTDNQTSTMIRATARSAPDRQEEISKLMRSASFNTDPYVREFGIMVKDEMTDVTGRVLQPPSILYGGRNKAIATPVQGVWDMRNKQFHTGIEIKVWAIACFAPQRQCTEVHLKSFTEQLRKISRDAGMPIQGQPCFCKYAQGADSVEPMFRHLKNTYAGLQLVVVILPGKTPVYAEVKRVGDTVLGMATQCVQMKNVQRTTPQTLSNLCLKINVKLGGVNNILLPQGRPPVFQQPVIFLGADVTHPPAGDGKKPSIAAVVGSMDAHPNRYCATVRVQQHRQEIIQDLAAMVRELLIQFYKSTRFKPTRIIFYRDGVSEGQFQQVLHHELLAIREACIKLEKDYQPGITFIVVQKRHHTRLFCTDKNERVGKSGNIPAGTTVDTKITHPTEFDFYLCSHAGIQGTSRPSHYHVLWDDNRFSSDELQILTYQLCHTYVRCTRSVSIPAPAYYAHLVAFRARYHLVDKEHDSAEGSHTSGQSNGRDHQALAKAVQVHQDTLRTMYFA

Columns and labels:
[1] = target: Flag-HA-tagged AGO2 (human), Q9UKV8; assay: affinity purification with mass spectrometry; anti-Flag resin IP of Flag-AGO2 from cytoplasmic extract of the stable T47D line, no RNase; overnight 4°C; 6 washes in IP300 buffer (300 mM NaCl, 0.05% NP-40); control: Flag IP from T47D extract; LC/MS/MS, SINQ; settings: remark: other sources report otherwise
[2] = target: endogenous Argonaute 2 (AGO2) (human (endogenous in T47D)), Q9UKV8; assay: affinity purification with mass spectrometry; anti-AGO2 antibody (cross-linked to resin) IP of endogenous AGO2 from T47D cytoplasmic extract, no RNase; overnight 4°C; 6 washes in IP300 buffer (300 mM NaCl, 0.05% NP-40); control: mouse IgG resin; LC/MS/MS, SINQ; settings: remark: other sources report otherwise
[3] = target: Flag-HA-tagged AGO2 (human), Q9UKV8; assay: affinity purification with mass spectrometry; anti-Flag resin IP of Flag-AGO2 from cytoplasmic extract of the stable T47D line, treated with RNase (TurboNuclease 1:10,000, 30 min, room temperature); 6 washes in IP300 buffer; control: Flag IP from T47D extract; LC/MS/MS, SINQ; settings: remark: other sources report otherwise
[4] = target: endogenous Argonaute 2 (AGO2) (human (endogenous in T47D)) (UniProt Q9UKV8); assay: affinity purification with mass spectrometry; anti-AGO2 antibody IP of endogenous AGO2 from T47D nuclear extract, no RNase (DNase added); 6 washes in IP300 buffer; control: mouse IgG resin; LC/MS/MS, SINQ
[5] = target: endogenous Argonaute 2 (AGO2) (human (endogenous in T47D)) (UniProt Q9UKV8); assay: affinity purification with mass spectrometry; anti-AGO2 antibody IP of endogenous AGO2 from T47D nuclear extract, treated with RNase (TurboNuclease); 6 washes in IP300 buffer; control: mouse IgG resin; LC/MS/MS, SINQ
[6] = target: Flag-HA-tagged AGO2 (human) (UniProt Q9UKV8); assay: affinity purification with mass spectrometry; anti-Flag resin IP of Flag-AGO2 from nuclear extract of the stable T47D line, no RNase (DNase added); 6 washes in IP300 buffer; control: Flag IP from T47D extract; LC/MS/MS, SINQ
[7] = target: Flag-HA-tagged AGO2 (human) (UniProt Q9UKV8); assay: affinity purification with mass spectrometry; anti-Flag resin IP of Flag-AGO2 from nuclear extract of the stable T47D line, treated with RNase (TurboNuclease); 6 washes in IP300 buffer; control: Flag IP from T47D extract; LC/MS/MS, SINQ

- binding [1]: binds
- binding [2]: binds
- binding [3]: binds
B1: TAR RNA binding protein (TRBP), Q15633-1 1-366 (protein)
chain: MSEEEQGSGTTTGCGLPSIEQMLAANPGKTPISLLQEYGTRIGKTPVYDLLKAEGQAHQPNFTFRVTVGDTSCTGQGPSKKAAKHKAAEVALKHLKGGSMLEPALEDSSSFSPLDSSLPEDIPVFTAAAAATPVPSVVLTRSPPMELQPPVSPQQSECNPVGALQELVVQKGWRLPEYTVTQESGPAHRKEFTMTCRVERFIEIGSGTSKKLAKRNAAAKMLLRVHTVPLDARDGNEVEPDDDHFSIGVGSRLDGLRNRGPGCTWDSLRNSVGEKILSLRSCSLGSLGALGPACCRVLSELSEEQAFHVSYLDIEELSLSGLCQCLVELSTQPATVCHGSATTREAARGEAARRALQYLKIMAGSK

- binding [4]: no binding (only in nuclear extract)
- binding [5]: no binding (only in nuclear extract)
- binding [6]: no binding (only in nuclear extract)
- binding [7]: no binding (only in nuclear extract)
B2: TAR RNA binding protein (TRBP) (protein, UniProt Q15633-1 1-366)
chain: B1 chain

- binding [7]: binds
B3: PEG10 (protein, UniProt Q86TG7 1-708)
chain: MTERRRDELSEEINNLREKVMKQSEENNNLQSQVQKLTEENTTLREQVEPTPEDEDDDIELRGAAAAAAPPPPIEEECPEDLPEKFDGNPDMLAPFMAQCQIFMEKSTRDFSVDRVRVCFVTSMMTGRAARWASAKLERSHYLMHNYPAFMMEMKHVFEDPQRREVAKRKIRRLRQGMGSVIDYSNAFQMIAQDLDWNEPALIDQYHEGLSDHIQEELSHLEVAKSLSALIGQCIHIERRLARAAAARKPRSPPRALVLPHIASHHQVDPTEPVGGARMRLTQEEKERRRKLNLCLYCGTGGHYADNCPAKASKSSPAGKLPGPAVEGPSATGPEIIRSPQDDASSPHLQVMLQIHLPGRHTLFVRAMIDSGASGNFIDHEYVAQNGIPLRIKDWPILVEAIDGRPIASGPVVHETHDLIVDLGDHREVLSFDVTQSPFFPVVLGVRWLSTHDPNITWSTRSIVFDSEYCRYHCRMYSPIPPSLPPPAPQPPLYYPVDGYRVYQPVRYYYVQNVYTPVDEHVYPDHRLVDPHIEMIPGAHSIPSGHVYSLSEPEMAALRDFVARNVKDGLITPTIAPNGAQVLQVKRGWKLQVSYDCRAPNNFTIQNQYPRLSIPNLEDQAHLATYTEFVPQIPGYQTYPTYAAYPTYPVGFAWYPVGRDGQGRSLYVPVMITWNPHWYRQPPVPQYPPPQPPPPPPPPPPPPSYSTL

Results are given in words; binding and its absence hold for the method and conditions named. Binding seen in cells or lysates may run through a third protein. A yes stands for co-enrichment or nearness to the bait. Other partners may have been found. For some assays here: No binding means not detected with the bait. Each block holds one binder with its values, some of them ahead of it.
